Out of some 140,000 compounds screened, about 4,300 (3.1%) were called active. This list was built around the results that the source calls inconclusive (neither active nor inactive); the mix of calls is not that of the screen.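 Rule for the calls: active = readout at or below -70, meaning at least 70% loss of cells showing the perinucleolar compartment, a nuclear body marking cancer cells; inconclusive = readout between -30 and a set limit; inactive = the rest.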
Experiment: High Content Assay for Compounds that inhibit the Assembly of the Perinucleolar Compartment;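 note: plate controls were DMSO wells for no effect and camptothecin positive control wells for full effect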
Conditions: PC3M PTB-GFP, PNC prevalence imaging, 16 h; at 10 µM; hits give low values
In short: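 Compounds are pinned in duplicate onto adhered PC3M cells stably expressing GFP-tagged PTB and incubated 16 h at 37 C. Cells are then fixed, nuclei stained with Hoechst, and PNC-positive cells counted.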

SMILES | activity change (PNC), negative = inhibition
CCSc1nc2c(c(-c3ccc(C)o3)c1C#N)CCCC2 | active: -100%
Cc1cc(C)cc(NC(=S)NCCc2c[nH]c3ccccc23)c1 | inactive: 22.2%
O=C(Oc1ccc2c(=O)c(Oc3ccc4ccccc4c3)coc2c1)c1cncc(Br)c1 | inconclusive: -36.9%
CCC(=O)NC(=S)Nc1ccc(S(=O)(=O)NC(C)=O)cc1 | inconclusive: -37.2%
O=C(Nc1ccc(Br)cc1)C1CCN(C(=O)c2ccc(F)cc2)CC1 | inconclusive: -52.4%
COc1ccc(-c2cc(C(=O)N3CCN(Cc4ccccc4)CC3)no2)cc1OC | inconclusive: -66.9%
CC1=C(C(=O)OC(C)C)C(c2cccs2)NC(=S)N1 (stereo unspecified) | inconclusive: -36.3%
COc1cccc(Nc2nc(C)cc(C)c2C#N)c1 | active: -100%
COc1ccc(N(Cc2cc3ccc(C)cc3[nH]c2=O)C(=O)c2ccco2)cc1 | active: -84%
C=CCn1c(SC/C=C/c2ccccc2)nnc1-c1sc(N)nc1C | inconclusive: -58.1%
O=C(CCCSc1ccccc1)Nc1nc(-c2ccco2)c(-c2ccco2)s1 | inactive: -24.4%
c1ccc(Nc2ncnc3sc4c(c23)CCC4)cc1 | inactive: 12.1%
CC1CC(C)CN(S(=O)(=O)c2ccc3c(c2)oc(=O)n3CC(=O)N2CCOCC2)C1 (stereo unspecified) | inconclusive: -31.7%
CC(=O)C(Sc1nn(C)c(=S)s1)C(=O)Nc1ccccc1 (stereo unspecified) | inactive: 2.65%
O=C(CSc1nnc(CCc2ccccc2)n1-c1ccc(Cl)cc1)c1ccccc1 | inconclusive: -37.7%
COc1cc(SC)ccc1C(=O)Nc1ccccc1C#N | inconclusive: -51.1%
Cc1ccc(Cn2c(NCCCn3ccnc3)nc3c2c(=O)n(C)c(=O)n3C)cc1 | inconclusive: -57.4%
O=C(C1CCC1)N1CCc2cc(S(=O)(=O)N3CCN(c4ccccn4)CC3)ccc21 | inconclusive: -42.5%
CC(=O)N=c1ncn(CC(COC(C)=O)OC(C)=O)c2nc[nH]c12 (stereo unspecified) | inconclusive: -37.2%

SMILES | activity change (PNC), negative = inhibition
Cc1ccc(S(=O)(=O)N2CCC(C(=O)N3CCC[C@H]3C(=O)NC3CCS(=O)(=O)C3)CC2)cc1 (stereo partly specified) | inconclusive: -43.1%
Nc1nc2n(n1)C(c1cccc(Br)c1)CC(c1ccccc1)N2 (stereo unspecified) | inconclusive: -54.4%
CC(C)(C)NS(=O)(=O)c1ccc(CCC(=O)NCc2ccc3c(c2)OCO3)cc1 | inactive: 278%
COc1ccc2[nH]cc(C(=O)CN(C)CCc3ccc(OC)c(OC)c3)c2c1 | inconclusive: -31.5%
Cc1cccc(N2CCN(C(=O)CCNS(=O)(=O)c3ccc4c(c3)CCC(=O)N4)CC2)c1C | inconclusive: -63.7%
CCSc1nnc(NC(=O)c2nn(C(C)C)c(=O)c3ccccc23)s1 | inconclusive: -68.4%
CN(C)CCCn1c(N)c(C#N)c2nc(C#N)c(C#N)nc21 | inconclusive: -56.9%
CCN(CC)S(=O)(=O)c1ccc(/C(O)=C2/C(=O)C(=O)N(CCOC)C2c2ccccc2)cc1 (stereo unspecified) | inconclusive: -43%
CCOC(=O)c1csc(NC(=O)CSc2nnnn2-c2ccc(OCC)cc2)n1 | inconclusive: -31.8%
Cc1cc(Br)c(NC(=O)CCl)c(Br)c1 | active: -88.5%
CSc1nc2sc3c(c2c2nnnn12)CCCC3 | inconclusive: -31.2%
CC(NC(=O)CCSc1nc(-c2ccc3c(c2)OCO3)cc(C(F)(F)F)n1)c1ccccc1 (stereo unspecified) | inactive: 11.2%
Cc1cc(=O)[nH]c(SC/C=C/c2ccccc2)n1 | inconclusive: -63.7%
CN(C(=O)COC(=O)c1cc(Br)c(Br)s1)C1CCS(=O)(=O)C1 (stereo unspecified) | inconclusive: -68.5%
CCOC(=O)N1CCN(CC(O)COc2ccccc2C(C)C)CC1 (stereo unspecified) | inactive: 56.4%
O=[N+]([O-])c1ccc(NCCCNS(=O)(=O)c2ccc(Cl)cc2)c(Cl)c1 | inactive: -20.7%
CC(=O)N1CCN(c2ccc(NCc3ccc4c(c3)OCO4)cc2)CC1 | inactive: 18.1%
O=C(O)CCCCCN1C(=O)/C(=C/c2ccncc2)SC1=S | inconclusive: -63.4%
CSc1nnc(-c2ccccc2N=Cc2c(C)[nH]n(-c3ccc4ccccc4c3)c2=O)c(=O)[nH]1 | inactive: -4.82%

SMILES | activity change (PNC), negative = inhibition
Cc1ccc(NC(=O)CSc2ncn(-c3ccccc3)n2)cc1C | inactive: 29%
CCN(CCNC(=O)C1CCN(Cc2nc(-c3cccc(Cl)c3)oc2C)CC1)c1ccccc1 | inactive: -13.5%
C#CCN1C(=O)C(O)(CC(=O)c2ccc3c(c2)OCCO3)c2ccccc21 (stereo unspecified) | inactive: 21.1%
O=C(CS(=O)(=O)c1cn(Cc2ccc(Cl)cc2)c2ccccc12)N1CCCC1 | inconclusive: -52%
O=C(CNC(=O)c1cccc(Cl)c1)N/N=C/C=C/c1ccccc1 | inconclusive: -33.2%
CN(C)C(=O)C1(c2ccccc2)CCN(S(=O)(=O)c2ccccc2)CC1 | inactive: 18.8%
O=C1c2ccccc2C(=O)N1CCCc1nc2ccccc2c(=O)n1CCCn1ccnc1 | inconclusive: -30.2%
COc1nc(C)nc2c1sc1nc3c(cc12)COC(C)(C)C3 | inactive: 28%
C=C(C)c1cccc(C(C)(C)NC(=O)N2CCCC2)c1 | inconclusive: -31.4%
CC(=O)N1C(=O)c2cccc3cccc(c23)C(=O)N1C(C)=O | inconclusive: -73.2%
O=C(CSc1nnc(-c2cccs2)n1-c1ccccc1)N1CCOCC1 | inactive: 3.37%
CCOC(=O)c1ccc(N=c2sc(C(=O)OC)cc(=O)n2Cc2ccco2)cc1 | inconclusive: -37.9%
COc1ccc(C(=O)Cn2nnc(-c3ccc(N4CCOCC4)cc3)n2)cc1OC | inconclusive: -58.4%
Cc1ccccc1-c1nnc(-c2ccccc2)o1 | inconclusive: -37.8%
NS(=O)(=O)c1cc2c(cc1C(F)(F)F)NCNS2(=O)=O | inconclusive: -30.6%
Cc1cc2n(n1)SC(Nc1ccccc1)N2 (stereo unspecified) | inactive: 57.8%
O=C(CNc1cccc(C(F)(F)F)c1)N/N=C/c1cn(-c2ccccc2)nc1-c1ccccc1 | inactive: -11%
Cc1ccnc(NCn2nnc3ccccc32)c1 | inactive: 70.9%

Reference: PubChem BioAssay AID2417 (National Center for Advancing Translational Sciences (NCATS), 2010)
